Assay results from patent US9084423B2, “Inhibition of bacterial biofilms with imidazole derivatives” (North Carolina State University, priority 2007, dated 2015).
Where a name gives a salt, the structure may show the parent alone. Some of these results come from one statement about several compounds together. For at least one compound, name, drawing or mass did not settle the structure.

How the values were obtained:
[1] = system: P. aeruginosa strain PAO1; test: Static biofilm inhibition assay (crystal violet), PAO1; type: cell-based, Pseudomonas aeruginosa
Experimental: Each compound was assayed for the ability to inhibit the formation of P. aeruginosa biofilms. […] We employed a standard crystal violet reporter assay to assess for the formation of biofilms. Briefly, P. aeruginosa strain PAO1 was allowed to form biofilms in a multi-well plate in the absence or presence of our compounds. Planktonic (or free growing) bacteria were then removed, wells washed vigorously, and crystal violet added. Crystal violet stains the remaining bacteria which, following ethanol solubilization, can be quantitated by spectrophotometry (A540).
(§1) An overnight culture of the bacterial strain being screened against was subcultured at an OD600 of 0.1 into the media used (listed below with strain) and then pipetted into test tubes along with a predetermined concentration of our compound of interest. Test tubes were then poured into tilted Petri dishes and 100 μL of media, strain and compound were then transferred into 96-well PVC microtiter plates. […] The quantification of biofilm formation was accomplished by transferring 125 μL of the ethanol solution into a polystyrene microtiter dish, which was read by spectrophotometry (A540). After the background has been subtracted from each row, a percent inhibition can be calculated by dividing the amount of crystal violet in wells that contained compound by the amount of crystal violet in wells that contained bacteria only. […]

P. aeruginosa PA14 = test: Static biofilm inhibition assay (crystal violet), PA14; type: cell-based, Pseudomonas aeruginosa
Experimental: as §1, with “plates. These microtiter plates were then covered, wrapped in Saran™ Wrap polyethylene film (S.C. Johnson, Racine, Wis.) and allowed to incubate at 37° C. for 24 hours. After that time, the medium was discarded and the plates were thoroughly washed with water. The remaining biofilm that was formed during incubation was stained with 100 μL of a 0.1% crystal violet solution and allowed to incubate at room temperature for 30 minutes. After 30 minutes, the crystal violet was discarded and washed thoroughly again with water.” for “plates.”

NC1=N/C(=C\CCNC(=O)c2cc(Br)c(Br)[nH]2)C(=O)N1 [Compound 31, Dispacamide Hydrochloride, reference compound]
% Biofilm Inhibition at 500 μM vs PAO1 [1]: < 20% | % Biofilm Inhibition at 500 μM vs PA14 (P. aeruginosa PA14): < 20%

Cn1c(C(=O)NC/C=C/c2cnc(N)[nH]2)cc(Br)c1Br [sventrin, Sventrin Hydrochloride, reference compound]
% Biofilm Inhibition at 500 μM vs PAO1 [1]: > 95% | % Biofilm Inhibition at 500 μM vs PA14 (P. aeruginosa PA14): > 95%
